The target of this experiment is DNA repair nuclease/redox regulator APEX1 (Homo sapiens) (UniProt P27695). Kind of experiment: qHTS Assay for Inhibitors of the Human Apurinic/apyrimidinic Endonuclease 1 (APE1).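 Also: plate controls were vehicle for no effect and reference inhibitor for full effect; nearly all actives have a fitted effect of over 55% in size.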 To be noted: recombinant APE1, TAMRA/BHQ-2 abasic DNA cleavage fluorescence. The text has this: The apurinic/apyrimidinic endonuclease APE1 is the primary mammalian enzyme responsible for the removal of abasic (or AP) sites in DNA and functions centrally in the base excision DNA repair (BER) pathway. […] Thus, targeting APE1 could improve the efficacy of current treatment paradigms by promoting selective sensitization or protection of diseased and normal cells, respectively.
Inhibition of APE1 activity was screened by utilizing double-stranded short substrate containing tetrahydrofuran (THF) abasic site labeled with rhodamine-type fluorophore (TAMRA) at the 5'-end and with non-fluorescent Black Hole Quencher-2 (BHQ-2) at the opposing 3'-end. An increase in the fluorescence intensity due to incision of the abasic site by APE1 was used to measure the enzyme activity.
NIH Chemical Genomics Center [NCGC]
NIH Molecular Libraries Probe Centers Network [MLPCN]
Assay Provider: David M. Wilson, III, National Institute on Aging, NIH
Three uL of enzyme solution (0.75 nM APE1 final concentration) was dispensed to 1536-well Greiner black solid bottom plates. […] The plates were incubated for 15 min at room temperature, and then 1 uL of substrate solution (50 nM final concentration of TAMRA/BHQ-2) was added to start the reaction. The plates were immediately transferred into ViewLux High-throughput CCD imager (Perkin-Elmer) in order to measure the reaction progress in kinetic mode (three reads every 60 seconds) using 525 nm excitation and 598 nm emission fluorescence protocol. The fluorescence intensity difference between the third and the first time points was used to compute reaction progress. Results were normalized to buffer only columns and NSC13755 positive controls and negative control DMSO treated wells.

Protein sequences, listed by entry. Tags and fused reporters are not part of them.
UniProt P27695, whole entry, looked up: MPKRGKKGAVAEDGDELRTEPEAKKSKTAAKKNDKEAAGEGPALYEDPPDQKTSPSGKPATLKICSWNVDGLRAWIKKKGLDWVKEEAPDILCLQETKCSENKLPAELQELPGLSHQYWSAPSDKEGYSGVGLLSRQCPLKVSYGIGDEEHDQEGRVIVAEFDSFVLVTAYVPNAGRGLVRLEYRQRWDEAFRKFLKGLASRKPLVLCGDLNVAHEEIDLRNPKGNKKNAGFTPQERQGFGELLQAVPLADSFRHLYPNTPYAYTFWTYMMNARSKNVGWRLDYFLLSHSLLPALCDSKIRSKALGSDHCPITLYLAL

Where “and” joins values, the source holds several entries; their conditions need not be identical. Identical values can stand only once. Shown are results outside the selection of hits, which stands elsewhere. Inconclusive results are not listed. Calls of active or inactive are those of the source. Calls follow the shape of the dose curve; as a rule, active = well fitted inhibition curve with a large enough effect; inconclusive = small, poorly fitted or top-dose-only effect; inactive = no such curve, though single readings can be large or run the other way.

Turning to `CN1[C@@H]2CC[C@H]1CC(OC(=O)C(O)c1ccccc1)C2` (stereo partly drawn), the activity change, negative = inhibition (at 21 µM (top of the series)) is inactive: 0.386% and the activity change, negative = inhibition (at 65.8 µM (top of the series)) is inactive: 2.17%. For `CN1C2CCC1CC(OC(=O)C(O)c1ccccc1)C2` (stereo not drawn), the activity change, negative = inhibition (at 65.8 µM (top of the series)) is inactive: 17.6% and inactive: 2.43%.
